Experimental data reported in patent US6897294.
These are yes or no findings as the source states them, for the method shown. Some binding calls cover weakened binding; strength is not graded here.

Sequences of proteins named here, by UniProt entry; tags and fusion partners are left off. A change or cut given only in a name is not applied to a line headed by its entry. A line that says so, or that is headed by a name, gives the form on record, which may keep a tag or linker.
UniProt P35916: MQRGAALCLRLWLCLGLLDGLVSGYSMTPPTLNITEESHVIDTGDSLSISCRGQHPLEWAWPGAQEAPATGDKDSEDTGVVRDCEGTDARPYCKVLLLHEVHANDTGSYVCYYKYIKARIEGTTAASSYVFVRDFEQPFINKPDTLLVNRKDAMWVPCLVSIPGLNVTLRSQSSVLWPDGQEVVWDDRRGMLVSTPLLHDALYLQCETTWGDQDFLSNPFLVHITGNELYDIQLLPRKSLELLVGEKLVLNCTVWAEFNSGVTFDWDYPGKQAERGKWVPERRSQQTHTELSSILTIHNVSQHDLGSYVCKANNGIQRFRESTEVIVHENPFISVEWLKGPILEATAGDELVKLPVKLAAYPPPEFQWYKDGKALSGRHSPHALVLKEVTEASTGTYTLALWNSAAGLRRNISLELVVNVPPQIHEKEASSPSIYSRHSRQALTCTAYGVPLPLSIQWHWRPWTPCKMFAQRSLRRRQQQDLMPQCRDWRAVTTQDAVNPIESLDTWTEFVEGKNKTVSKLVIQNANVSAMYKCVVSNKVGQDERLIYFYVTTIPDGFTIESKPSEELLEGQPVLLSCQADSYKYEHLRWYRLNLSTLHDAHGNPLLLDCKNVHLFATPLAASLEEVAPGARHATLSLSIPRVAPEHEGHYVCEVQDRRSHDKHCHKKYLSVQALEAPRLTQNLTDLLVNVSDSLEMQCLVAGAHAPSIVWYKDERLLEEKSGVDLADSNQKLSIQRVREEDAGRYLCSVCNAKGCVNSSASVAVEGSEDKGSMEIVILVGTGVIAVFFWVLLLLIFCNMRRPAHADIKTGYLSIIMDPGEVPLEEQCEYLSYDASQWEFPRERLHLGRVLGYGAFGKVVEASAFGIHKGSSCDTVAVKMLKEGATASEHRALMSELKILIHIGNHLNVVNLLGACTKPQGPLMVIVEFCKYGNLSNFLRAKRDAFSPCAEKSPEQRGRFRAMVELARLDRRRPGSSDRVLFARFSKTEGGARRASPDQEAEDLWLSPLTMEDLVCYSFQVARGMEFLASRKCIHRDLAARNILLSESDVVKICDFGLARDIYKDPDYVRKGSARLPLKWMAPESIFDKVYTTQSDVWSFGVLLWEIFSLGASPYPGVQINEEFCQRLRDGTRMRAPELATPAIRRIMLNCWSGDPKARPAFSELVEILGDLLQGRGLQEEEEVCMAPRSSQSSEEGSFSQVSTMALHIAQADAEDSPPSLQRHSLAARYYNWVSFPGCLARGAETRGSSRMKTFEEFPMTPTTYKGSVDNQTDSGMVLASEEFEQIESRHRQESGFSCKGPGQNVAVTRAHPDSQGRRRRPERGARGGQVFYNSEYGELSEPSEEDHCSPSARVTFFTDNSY
vascular endothelial growth factor VEGF165 (P15692, form named): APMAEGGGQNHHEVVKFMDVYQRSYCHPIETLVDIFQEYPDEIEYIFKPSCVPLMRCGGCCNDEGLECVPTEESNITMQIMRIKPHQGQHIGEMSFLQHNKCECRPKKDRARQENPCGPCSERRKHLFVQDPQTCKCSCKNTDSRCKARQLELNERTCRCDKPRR

Columns and labels:
[1] = target: flt-1(2)/FLT4 chimeric receptor (human) (UniProt P35916); assay: saturation binding of 125I-VEGF to transiently transfected 293 cells
[2] = target: flt-1(1, 2, 3)/FLT4 chimeric receptor (human); assay: as above

In the case of “vascular endothelial growth factor VEGF165 (from UniProt P15692 27-191) (ligand)”, the binding [1] was “binds” and the binding [2] was “binds”.
